# Test system: β-actin
# Test: β-actin RT-PCR band quantitation in treated LNCap cells (normaliser)
# Assay type: cell-based, human
# Conditions: 3 days
SMILES,beta-actin band quantitation (Cyproterone Acetate 0.1 nM),beta-actin band quantitation (Cyproterone Acetate 10 nM),beta-actin band quantitation (Cyproterone Acetate 1 uM),beta-actin band quantitation (Cyproterone Acetate 10 uM),beta-actin band quantitation (R1881 0.01 nM),beta-actin band quantitation Average (R1881 0.01 nM),beta-actin band quantitation (R1881 1 nM),beta-actin band quantitation Average (R1881 1 nM),beta-actin band quantitation (R1881 100 nM),beta-actin band quantitation Average (R1881 100 nM),beta-actin band quantitation (R1881 1 uM),beta-actin band quantitation Average (R1881 1 uM)
"CC(=O)O[C@]1(C(C)=O)CC[C@H]2[C@@H]3C=C(Cl)C4=CC(=O)[C@@H]5C[C@@H]5[C@]4(C)[C@H]3CC[C@@]21C [Cyproterone Acetate, Cyproterone acetate]",13278,14112,11856,14691,–,–,–,–,–,–,–,–
C[C@]1(O)CC[C@H]2[C@@H]3CCC4=CC(=O)CCC4=C3C=C[C@@]21C [R1881],–,–,–,–,8799,8799,14242,14242,12536,12536,8424,8424

# Source: patent publication US20050136040A1, “Control of gene expression using a complex of an oligonucleotide and a regulatory peptide” (Imperial College Innovations Limited, priority 2001, published 2005)
